PubChem BioAssay AID504444 (National Center for Advancing Translational Sciences (NCATS), 2011)
Out of some 360,000 compounds screened, about 7,500 (2.1%) were called active. The inconclusive results got no clear call from the source; some entries with a clear call stand among them for comparison. Calls follow the shape of the dose curve; as a rule, active = well fitted inhibition curve with a large enough effect; inconclusive = small, poorly fitted or top-dose-only effect, or effect the other way; inactive = flat fitted curve, though single readings scatter. Potencies beside an inconclusive call are fits to weak or partial responses and may not hold up.

assay: Nrf2 qHTS screen for inhibitors; settings: A549 ARE-Fluc reporter, luciferase luminescence, 18-24 h; activity change, negative = inhibition: at 46 µM (top of the series); also: nearly all actives have a fitted effect of over 60% in size
Outline: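 Quantitative HTS in A549 cells stably bearing an antioxidant response element-firefly luciferase construct. Inhibition of Nrf2-driven transcription was scored by luminescence after 18-24 h of compound exposure at 37 °C.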
% is scaled to controls: 0 for no effect and ±100 for the full control effect; potency is read from the fitted curve at half-maximal effect.

| SMILES | Potency | activity change, negative = inhibition |
| --- | --- | --- |
| Cc1nc(Nc2ccc(F)cc2)[nH]c(=O)c1CCC(C)C | active: 14.6 µM | – |
| CCOc1ccc2nc(N3CCCC(C(=O)NCc4ccc(OC)cc4)C3)sc2c1 (centres undefined) | inconclusive: 1.46 µM [activator, partial curve, poor fit] | – |
| CCN(CC)c1ccc(NC(=O)c2ccc3c(c2)c(C)c(C)n3C)cc1 | – | inactive: -15.8% |
| CCOc1ccc(N(CC(=O)Nc2ccc(C)c(C)c2)S(=O)(=O)c2c(C)noc2C)cc1 | active: 13 µM | – |
| O=C(NCc1cccnc1)c1ccc(CN2CCc3ccccc3C2)cc1 | inconclusive: 20.6 µM [falling, single point] | – |
| CCCC[C@@H]1CNCCN1CCc1cc(C(F)(F)F)cc(C(F)(F)F)c1 | – | inactive: 16.7% |
| CC(C)c1ccc(Nc2cc(C(=O)NCc3cccs3)c3ccccc3n2)cc1 | – | inactive: -11.6% |
| Cc1ccc(Nc2nc(-c3ccncc3)nc3ccccc23)cc1 | inconclusive: 25.9 µM [falling, single point] | – |
| Cc1ccc(-n2ncc(Cl)c2C(=O)NC2CC2)cc1 | inconclusive: 11.6 µM [activator, partial curve] | – |
| Cc1cc(NC(=O)CSc2ccc3nnc(CCNS(=O)(=O)c4ccccc4)n3n2)no1 | inconclusive: 4.11 µM [activator, partial curve, poor fit] | – |
| Cc1cccc(NC(=O)c2ccc(OC3CSC3)cc2)c1 | inconclusive: 2.31 µM [activator, partial curve, poor fit] | – |
| O=C(Nc1cccn(Cc2c(Cl)cccc2Cl)c1=O)c1ccccc1Cl | active: 1.46 µM | – |
| CC(=O)Nc1ccc(NC(=O)c2ccc3c(c2)C(=O)N(c2ccccc2C)C3=O)cc1 | inconclusive: 25.9 µM [falling, partial curve, poor fit] | – |
| Cc1cc(C)c(Nc2cc(S(=O)(=O)O)c(N)c3c2C(=O)c2ccccc2C3=O)c(C)c1 | inconclusive: 23.1 µM [falling, partial curve, poor fit] | – |
| N=c1c(C(=O)NC2CCCCC2)cc2c(=O)n3ccccc3nc2n1Cc1ccc(F)cc1 | – | inactive: 10% |
| O=C1CC(C(=O)N2CCN(c3ccccn3)CC2)CN1Cc1ccccc1Cl (centres undefined) | – | inactive: -6.1% |
| Cc1cc(C)nc(NC(=NCCc2c[nH]c3ccccc23)NC(=O)Nc2ccccc2)n1 | inconclusive: 13 µM [falling, single point] | – |
| Cc1ccc(/C=N\NC(=O)c2ccc(Cn3cc(Br)c([N+](=O)[O-])n3)o2)o1 | inconclusive: 5.17 µM [falling, partial curve, poor fit] | – |
| COc1ccc(/C=C/c2onc(C)c2S(=O)(=O)N2CCC(C(=O)N3CCC(C)CC3)CC2)cc1 | inconclusive: 18.4 µM [falling, single point] | – |

Some of the entries so far, field by field:
N=c1c(C(=O)NC2CCCCC2)cc2c(=O)n3ccccc3nc2n1Cc1ccc(F)cc1
  activity change, negative = inhibition: inactive: 10%
O=C1CC(C(=O)N2CCN(c3ccccn3)CC2)CN1Cc1ccccc1Cl (centres undefined)
  activity change, negative = inhibition: inactive: -6.1%
